Assay results as given in patent US20090156421A1 (published 2009).
No constants are given. Whether binding was seen depends on the method and setting. Binding calls can cover weak binding; strength is not graded here.

Chains of the proteins cited; added tags and fusions are not shown. Lines headed by an entry give the natural chain unless they say otherwise; changes in a name come on top.
UniProt P35225: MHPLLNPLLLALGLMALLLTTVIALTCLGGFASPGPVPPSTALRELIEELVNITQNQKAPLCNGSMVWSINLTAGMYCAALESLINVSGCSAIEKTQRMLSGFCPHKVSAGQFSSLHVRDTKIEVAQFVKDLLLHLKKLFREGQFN

Experiments:
[1] = target: T1, IL-13Rα1 monomer (IL-13Rα1 extracellular domain) (human) (UniProt P78552); experiment: SPR, IL-13Rα1 immobilised
T1 sequence (looked up): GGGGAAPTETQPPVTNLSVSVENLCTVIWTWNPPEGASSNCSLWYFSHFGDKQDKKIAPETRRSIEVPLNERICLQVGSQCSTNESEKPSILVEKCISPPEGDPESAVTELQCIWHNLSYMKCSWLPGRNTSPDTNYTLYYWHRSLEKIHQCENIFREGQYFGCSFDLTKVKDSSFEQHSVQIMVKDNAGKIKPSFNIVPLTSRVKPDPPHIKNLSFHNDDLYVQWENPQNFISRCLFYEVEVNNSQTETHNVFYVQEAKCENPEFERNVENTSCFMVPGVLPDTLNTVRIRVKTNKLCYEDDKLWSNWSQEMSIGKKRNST

[2] = target: T1, IL-13Rα1 monomer (IL-13Rα1 extracellular domain) (human); experiment: TR-FRET assay 1, competition
[3] = target: T1, IL-13Rα1 monomer (IL-13Rα1 extracellular domain) (human); experiment: SPR (Biacore 3000), IL-13Rα1 immobilised
[4] = target: Eu-IL-13 (europium chelate labeled IL-13) (human) (UniProt P35225); experiment: TR-FRET assay 1
[5] = target: Eu-IL-13 (europium chelate labeled IL-13) (human) (UniProt P35225); experiment: TR-FRET assay 1, direct binding

With “Human recombinant IL-13 (from UniProt P35225) (ligand)” the binding [1] was “binds”, the binding [2] was “binds” and the binding [3] was “binds”.

B1: Cy5-IL-13Rα1 (Cy5 labeled IL-13Rα1) (receptor, human, UniProt P78552 22-343, looked up)
chain: GGGGAAPTETQPPVTNLSVSVENLCTVIWTWNPPEGASSNCSLWYFSHFGDKQDKKIAPETRRSIEVPLNERICLQVGSQCSTNESEKPSILVEKCISPPEGDPESAVTELQCIWHNLSYMKCSWLPGRNTSPDTNYTLYYWHRSLEKIHQCENIFREGQYFGCSFDLTKVKDSSFEQHSVQIMVKDNAGKIKPSFNIVPLTSRVKPDPPHIKNLSFHNDDLYVQWENPQNFISRCLFYEVEVNNSQTETHNVFYVQEAKCENPEFERNVENTSCFMVPGVLPDTLNTVRIRVKTNKLCYEDDKLWSNWSQEMSIGKKRNST
modifications: Cy5 label, directly labeled; site not stated
notes: extracellular domain; also called IL-13R-Cys5; Cy5-IL-13RI1
In the case of B1, the binding [4] is reported as “binds” and the binding [5] is reported as “binds”.
